The list is a part of this screen's results and no random one: it is rich in T/C values a quarter to a half above the control, in often repeated tests (any T/C) and in doses without a T/C. Other doses and runs of a compound stand elsewhere. T/C: endpoint of the treated group in % of that of the vehicle group. Some doses have a count of surviving animals in place of a T/C: the source holds a T/C of zero for them, seemingly a mark for toxic or unscored doses. Some survivor counts are full or nearly so, which does not show that the dose was tolerated: the source hardly ever lists a survival T/C far under the control, and the zero likely stands for such cases as well. Survivors were counted at the toxicity check, usually on the fifth day, unless a day is given; later deaths do not show. Schedule codes are those of the source, taken here to give the interval after Q, in days (D) or hours (H), and the number of doses after X. Some schedule codes hold Z or #, which are not explained here. Where survival is the endpoint, the PubChem record calls one and a half times the control and up active, and a quarter to a half above the control has no call in these data; cut-offs in other NCI protocols can differ. Some entries hold several experiments; the results are listed from low to high. Some T/C values carry the count of animals alive at the toxicity check (mostly the fifth day); where none is given, no animal had died by that day.
Test system: L1210 leukemia ip in BDF1 mice, survival T/C
Assay: NCI In Vivo Anticancer Drug Screen. Data for tumor model L1210 Leukemia (intraperitoneal) in B6D2F1 (BDF1) mice
Settings: T/C endpoint: mean survival time, higher T/C = longer survival
[1] = dose: 100.0 mg/kg/injection, schedule: Q01DX001 (ip), vehicle: saline
[2] = dose: 400.0 mg/kg/injection, schedule: Q01DX001 (ip), vehicle: saline
[3] = dose: 25.0 mg/kg/injection, schedule: Q01DX009 (ip), vehicle: saline
[4] = dose: 400.0 mg/kg/injection, schedule: Q04DX003 (ip), vehicle: saline

[N-]=[N+]=CC(=O)NCC(=O)NN was tested, and the T/C (dose: 200.0 mg/kg/injection, schedule: Q01DX Z (ip), vehicle: other) was 148 % of control, the T/C (dose: 200.0 mg/kg/injection, schedule: Q02DX Z (ip), vehicle: saline) was 148 % of control and the T/C (dose: 250.0 mg/kg/injection, schedule: Q01DX005 (ip), vehicle: other) was 141 % of control. For the same compound, the T/C (dose: 250.0 mg/kg/injection, schedule: Q01DX009 (ip), vehicle: other) was 142 % of control, the T/C (dose: 250.0 mg/kg/injection, schedule: Q01DX009 (ip), vehicle: saline) was 133 % of control and the T/C (dose: 250.0 mg/kg/injection, schedule: Q02DX009 (ip), vehicle: saline) was 136 % of control. For the same compound, the T/C (dose: 300.0 mg/kg/injection, schedule: Q01DX Z (ip), vehicle: water) was 126 % of control, the T/C (dose: 375.0 mg/kg/injection, schedule: Q01DX Z (ip), vehicle: saline) was 127 % of control and the T/C (dose: 375.0 mg/kg/injection, schedule: Q01DX Z (ip), vehicle: water) was 130 % of control. For the same compound, the T/C (dose: 400.0 mg/kg/injection, schedule: Q01DX009 (ip), vehicle: other) was 127 % of control, the T/C (dose: 400.0 mg/kg/injection, schedule: Q01DX Z (ip), vehicle: water) was 129 % of control and the T/C (dose: 400.0 mg/kg/injection, schedule: Q01DX Z (sc), vehicle: other) was 125 % of control. The T/C (dose: 400.0 mg/kg/injection, schedule: Q02DX005 (ip), vehicle: saline) was 129 % of control, the T/C (dose: 400.0 mg/kg/injection, schedule: Q02DX Z (ip), vehicle: other) was 137 % of control and the T/C (dose: 400.0 mg/kg/injection, schedule: Q03DX Z (ip), vehicle: other) was 128 % of control. The T/C (dose: 500.0 mg/kg/injection, schedule: Q01DX009 (ip), vehicle: other) was 133 % of control, the T/C (dose: 500.0 mg/kg/injection, schedule: Q01DX017 (ip), vehicle: saline) was 130 % of control and the T/C (dose: 500.0 mg/kg/injection, schedule: Q01DX Z (ip), vehicle: saline) was 136 % of control. For the same compound, the T/C (dose: 500.0 mg/kg/injection, schedule: Q01DX Z (ip), vehicle: water) was 142 % of control, the T/C (dose: 500.0 mg/kg/injection, schedule: Q02DX009 (ip), vehicle: saline) was 139 % of control and the T/C (dose: 500.0 mg/kg/injection, schedule: Q04DX003 (ip), vehicle: other) was 142 % of control. The T/C (dose: 500.0 mg/kg/injection, schedule: Q04DX003 (ip), vehicle: saline) was 132 % of control, the T/C (dose: 500.0 mg/kg/injection, schedule: Q08DX002 (ip), vehicle: other) was 135 % of control and the T/C (dose: 500.0 mg/kg/injection, schedule: Q08DX002 (ip), vehicle: saline) was 131 % of control. The T/C (dose: 600.0 mg/kg/injection, schedule: Q01DX005 (ip), vehicle: other) was 136 % of control, the T/C (dose: 600.0 mg/kg/injection, schedule: Q01DX009 (ip), vehicle: other) was 136 % of control [9 of 10 alive] and the T/C (dose: 600.0 mg/kg/injection, schedule: Q02DX005 (ip), vehicle: saline) was 144 % of control. For the same compound, the survivor count (dose: 700.0 mg/kg/injection, schedule: Q01DX009 (sc), vehicle: other) was 3 of 10, the survivor count (dose: 750.0 mg/kg/injection, schedule: Q01DX009 (ip), vehicle: other) was 5 of 6 and the survivor count (dose: 750.0 mg/kg/injection, schedule: Q01DX Z (ip), vehicle: other) was 6 of 6. For the same compound, the survivor count (dose: 750.0 mg/kg/injection, schedule: Q01DX Z (ip), vehicle: saline) was 5 of 6, the survivor count (dose: 750.0 mg/kg/injection, schedule: Q01DX Z (ip), vehicle: water) was 6 of 6 and the T/C (dose: 750.0 mg/kg/injection, schedule: Q08DX002 (ip), vehicle: other) was 131 % of control. For the same compound, the T/C (dose: 800.0 mg/kg/injection, schedule: Q01DX Z (ip), vehicle: other) was 128 % of control, the T/C (dose: 800.0 mg/kg/injection, schedule: Q## X024 (ip), vehicle: water) was 131 % of control and the T/C (dose: 1000.0 mg/kg/injection, schedule: Q01DX001 (ip), vehicle: other) was 135 % of control. The survivor count (dose: 1000.0 mg/kg/injection, schedule: Q01DX017 (ip), vehicle: saline) was 8 of 10, the T/C (dose: 1000.0 mg/kg/injection, schedule: Q08DX002 (ip), vehicle: other) was 136 % of control and the T/C (dose: 1100.0 mg/kg/injection, schedule: Q## X024 (ip), vehicle: water) was 134 % of control. For the same compound, the T/C (dose: 1200.0 mg/kg/injection, schedule: Q01DX Z (ip), vehicle: other) was 135 and 140 % of control, the T/C (dose: 1500.0 mg/kg/injection, schedule: Q04DX003 (ip), vehicle: other) was 132 % of control and the T/C (dose: 1600.0 mg/kg/injection, schedule: Q01DX Z (ip), vehicle: other) was 135 % of control. For the same compound, the survivor count (dose: 1600.0 mg/kg/injection, schedule: Q01DX Z (oral), vehicle: other) was 3 of 6, the survivor count (dose: 1600.0 mg/kg/injection, schedule: Q01DX Z (oral), vehicle: saline) was 3 of 6 and the T/C (dose: 2000.0 mg/kg/injection, schedule: Q01DX001 (ip), vehicle: saline) was 146 % of control [9 of 10 alive]. For the same compound, the survivor count (dose: 2000.0 mg/kg/injection, schedule: Q02DX009 (ip), vehicle: saline) was 3 of 10, the survivor count (dose: 2500.0 mg/kg/injection, schedule: Q01DX001 (ip), vehicle: saline) was 4 of 10 and the survivor count (dose: 2500.0 mg/kg/injection, schedule: Q08DX002 (ip), vehicle: saline) was 3 of 10.

CCCN(CCC)C(=S)CC was tested, and the survivor count (dose: 400.0 mg/kg/injection, schedule: Q04DX002 (ip), vehicle: saline with Tween-80) was 1 of 3.

For c1ccc2cc(CCSSCCc3ccc4ccccc4c3)ccc2c1, the survivor count [1] was 4 of 4 and the survivor count [2] was 4 of 4.

For O=C(COC(=O)c1ccccc1C(=O)c1ccccc1O)c1ccc(-c2ccccc2)cc1, the survivor count [1] was 4 of 4.

For O=[N+]([O-])c1ccccn1, the survivor count [3] was 4 of 6, the survivor count (dose: 150.0 mg/kg/injection, schedule: Q01DX001 (ip), vehicle: other) was 0 of 6 and the survivor count (dose: 300.0 mg/kg/injection, schedule: Q01DX001 (ip), vehicle: other) was 0 of 6.

In the case of O=C1CCCC1CNCc1ccccc1 (stereo not drawn), the survivor count (dose: 300.0 mg/kg/injection, schedule: Q01DX001 (ip), vehicle: saline) is reported as 0 of 6.

With CC1=NC(C)CNC(C)(C)CC(C)=NC(C)CNC(C)(C)C1 (stereo not drawn) the survivor count (dose: 100.0 mg/kg/injection, schedule: Q04DX002 (ip), vehicle: Klucel (hydroxypropylcellulose) (HPC)) was 0 of 3, the survivor count (dose: 200.0 mg/kg/injection, schedule: Q04DX002 (ip), vehicle: Klucel (hydroxypropylcellulose) (HPC)) was 0 of 3 and the survivor count (dose: 400.0 mg/kg/injection, schedule: Q04DX002 (ip), vehicle: Klucel (hydroxypropylcellulose) (HPC)) was 0 of 3.

For CCCCCCCNCCC#N, the survivor count (dose: 400.0 mg/kg/injection, schedule: Q01DX001 (ip), vehicle: saline with Tween-80) was 0 of 6.

CCOC(=O)C(NC(C)=O)(C(=O)OCC)C(C)C(=O)c1ccc(OC)c(OC)c1OCc1ccccc1 (stereo not drawn) was tested, and the survivor count (dose: 12.5 mg/kg/injection, schedule: Q01DX009 (ip), vehicle: saline) was 6 of 6, the survivor count [3] was 6 of 6 and the survivor count (dose: 50.0 mg/kg/injection, schedule: Q01DX009 (ip), vehicle: saline) was 6 of 6. The survivor count (dose: 100.0 mg/kg/injection, schedule: Q01DX009 (ip), vehicle: saline) was 4 of 6 and the survivor count (dose: 200.0 mg/kg/injection, schedule: Q01DX009 (ip), vehicle: saline) was 6 of 6.

For CN(C)N=Nc1ccc(CCC(=O)NN)cc1, the T/C (dose: 45.0 mg/kg/injection, schedule: Q01DX Z (ip), vehicle: saline) was 132 % of control.

With O=C1c2ccccc2C(=O)N1CNc1cccc(Cl)c1 the survivor count (dose: 400.0 mg/kg/injection, schedule: Q01DX009 (ip), vehicle: saline with Tween-80) was 1 of 3.

For O=C1CCCc2ccc([N+](=O)[O-])cc21, the survivor count [4] was 5 of 6.

CC(C)N(CCCCO)C(C)C was tested, and the survivor count (dose: 200.0 mg/kg/injection, schedule: Q01DX001 (ip), vehicle: carboxymethylcellulose (CMC)) was 4 of 4 and the survivor count (dose: 400.0 mg/kg/injection, schedule: Q01DX001 (ip), vehicle: carboxymethylcellulose (CMC)) was 1 of 4.

CC(C)N(CCCOC(=O)c1ccc(N)cc1)C(C)C was tested, and the survivor count (dose: 200.0 mg/kg/injection, schedule: Q04DX003 (ip), vehicle: saline) was 4 of 6 and the survivor count [4] was 1 of 6.

C/C=C(\Br)C(=O)Nc1ccc(OCC)cc1 was tested, and the survivor count [2] was 0 of 4.
